Laboratory results from article PMC10564737, “Structure-based design of a phosphotyrosine-masked covalent ligand targeting the E3 ligase SOCS2” (Nature Communications, 2023).
Values joined by “and” are separate entries in the source; they are usually repeats but may differ in a detail not shown here. Identical values can stand only once. This continues a long series; more values of the same kind are listed elsewhere.

By UniProt entry, the sequences of proteins in these tests, tags left out. Residues count along the entry.
UniProt O14508, 32-198: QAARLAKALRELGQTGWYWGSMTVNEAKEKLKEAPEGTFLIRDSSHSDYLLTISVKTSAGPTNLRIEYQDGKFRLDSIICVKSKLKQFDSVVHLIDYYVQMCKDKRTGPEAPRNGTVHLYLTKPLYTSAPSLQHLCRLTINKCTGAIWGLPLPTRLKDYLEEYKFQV

Molecular target: T1, SBC2 (Homo sapiens, UniProt O14508)
T1 construct: SOCS2 (amino acids 32–198); His6 (N, cleaved yes); made in house; host or cells: E. coli BL21(DE3)
Experiment: Covalent fluorescence polarization (FP) probe displacement assay
Assay type: binding
Source text: With the specific covalent modification of Cys111 established, we decided to fully characterize MN551 as a covalent SOCS2 inhibitor. […] (Fig. 2g, h, Supplementary Fig. 9). Due to the covalent nature of the competing inhibitor, a time-dependent reduction in the fraction of protein-bound probe is observed. […] This value illustrates reasonable specificity for a covalent inhibitor, with nonetheless scope for future optimization. In addition to characterizing the kinetic covalency parameters, we have also assessed the stability of the MN551 by monitoring its reactivity (half-life >70 min) with reduced glutathione (GSH) (Supplementary Fig. 10)[35].
To monitor the SBC2-ligand binding kinetics we designed a fluorescein-labeled small-molecule probe - compound 26. The fluorescence polarization (anisotropy) of a threefold serial dilution of 50 µM SBC2 in 10 nM of the probe in 100 mM HEPES pH 7.5, 50 mM NaCl, 0.5 mM TCEP, 2% DMSO was measured to determine the KL (Supplementary Fig. 9A) (BMG Labtech PHERAstar – firmware v1.33). Protein titration and the curves were fitted using GraphPad Prism 9, using one-site fitting models to determine the probe binding constant, KL. Samples were run in triplicate in 384 well plates, using a total volume per well of 16 μL. The bound fraction of the probe is measure using the equation:1 Fb=Af−A/Af−Ab Where,
A time-dependent reduction in probe anisotropy were measured for a 2-fold serial dilution of […] compound MN551 in 10 nM probe +300 μM SBC2. To determine the initial reversible binding affinity, the initial bound fraction of the probe at time = 0, Fbo (the y-intercept in Fb v/s Time plot, Supplementary Fig. 9B) was plotted against MN551 concentration, and the obtained IC50 is then converted to Ki (Supplementary Fig. 9C)[17]. The slope from Fb versus time graph when divided by Fbo gives rate of covalency, kobs. A plot of kobs v/s MN551 concentration using Michaelis–Menten model of GraphPad Prism 9, provides the parameters kinact (maximum potential rate of inactivation) and KI (concentration of MN551 at which kobs = kinact/2) (Supplementary Fig. 9D, E).
The observed first-order rate constant, kobs is related to KI and kinact by the equation:2 kobs=kinactI/KI+I
At [I]«[KI] the above equation is converted to3 […]
The slope from the plot of kobs against concentration of MN551 gives us the covalent efficiency parameter kinact/KI (Supp Fig. 9F)[30],[33].

[1] = MN551 132.81 nM; Cycle 9 (40 min)
[2] = MN551 132.81 nM; Cycle 10 (45 min)
[3] = MN551 132.81 nM; Cycle 11 (50 min)
[4] = MN551 132.81 nM; Cycle 12 (55 min); n=1
[5] = MN551 132.81 nM; Cycle 13 (60 min); n=1
[6] = MN551 132.81 nM; Cycle 14 (65 min); n=1
[7] = MN551 132.81 nM; Cycle 15 (70 min); n=1
[8] = MN551 132.81 nM; Cycle 16 (75 min); n=1
[9] = MN551 185.934 nM, Cycle 8 (35 min)
[10] = MN551 185.934 nM, Cycle 9 (40 min)
[11] = MN551 185.934 nM, Cycle 10 (45 min)
[12] = MN551 185.934 nM, Cycle 11 (50 min)
[13] = MN551 185.934 nM, Cycle 16 (75 min), n=1
[14] = MN551 185.934 nM, Cycle 17 (80 min), n=1
[15] = MN551 185.934 nM, Cycle 18 (85 min), n=1
[16] = MN551 185.934 nM; Cycle 7 (30 min)
[17] = MN551 185.934 nM; Cycle 8 (35 min)
[18] = MN551 185.934 nM; Cycle 9 (40 min)
[19] = MN551 185.934 nM; Cycle 10 (45 min)
[20] = MN551 185.934 nM; Cycle 11 (50 min)
[21] = MN551 185.934 nM; Cycle 12 (55 min); n=1
[22] = MN551 185.934 nM; Cycle 13 (60 min); n=1
[23] = MN551 185.934 nM; Cycle 14 (65 min); n=1
[24] = MN551 185.934 nM; Cycle 15 (70 min); n=1
[25] = MN551 185.934 nM; Cycle 16 (75 min); n=1
[26] = MN551 195.312 nM, Cycle 8 (35 min)
[27] = MN551 195.312 nM, Cycle 9 (40 min)
[28] = MN551 195.312 nM, Cycle 10 (45 min)

SMILES: O=C(CCl)Nc1cccc(CNC(=O)[C@H](Cc2ccc(OP(=O)(O)O)cc2)NC(=O)Cc2ccc(F)cc2)c1 [MN551]
- Anisotropy data 485,520,520 [1]: 267.3 and 263.4 and 263.6
- Fb [1]: 1.0058 and 1.047 and 1.034 and 0.9835 and 0.9433 and 0.9593
- Anisotropy [2]: 274.9 and 273.2 and 271.4
- Anisotropy data 485,520,520 [2]: 269.8 and 264.2 and 264.3
- Fb [2]: 1.015 and 1.025 and 1.048 and 0.9849 and 0.949 and 0.9558
- Anisotropy [3]: 272.7 and 271.9 and 269.8
- Fb [3]: 0.9723 and 0.9527 and 0.961
- Anisotropy (MN551 132.81 nM; Cycle 11 (50 min); n=1): 266.6 and 259.3 and 264.4
- Anisotropy [4]: 265.7 and 259.8 and 261.2
- Anisotropy based on Raw Data (485) [4]: 275.3 and 273.6 and 267.2
- Anisotropy [5]: 266.2 and 258.7 and 258.4
- Anisotropy based on Raw Data (485) [5]: 276 and 273.1 and 267.8
- Anisotropy [6]: 263.1 and 257 and 258
- Anisotropy based on Raw Data (485) [6]: 272.2 and 271.8 and 265.3
- Anisotropy [7]: 263.9 and 255.7 and 259
- Anisotropy based on Raw Data (485) [7]: 274.4 and 271 and 267.7
- Anisotropy [8]: 261.1 and 257.1 and 257
- Anisotropy based on Raw Data (485) [8]: 270.6 and 272.1 and 263.7
- Anisotropy data 485,520,520 (MN551 132.81 nM; Cycle 19 (90 min); n=1): 266.9 and 265.6 and 265
- Anisotropy data 485,520,520 (MN551 132.81 nM; Cycle 20 (95 min); n=1): 267.8 and 264.8 and 263.2
- Fb (MN551 185.934 nM, Cycle 7 (30 min)): 0.8947 and 0.8274 and 0.875
- Anisotropy based on Raw Data (485) [9]: 278.3 and 274.5 and 271.2
- Fb [9]: 0.8507 and 0.8413 and 0.8575
- Anisotropy based on Raw Data (485) [10]: 275.7 and 275.4 and 267.9
- Fb [10]: 0.8557 and 0.8458 and 0.8527
- Anisotropy based on Raw Data (485) [11]: 274.8 and 273.1 and 267.2
- Fb [11]: 0.8791 and 0.8583 and 0.8495
- Anisotropy based on Raw Data (485) [12]: 273.1 and 272.9 and 266.3
- Fb [12]: 0.8806 and 0.8612 and 0.8383
- Anisotropy (MN551 185.934 nM, Cycle 13 (60 min), n=1): 270.4 and 268.1 and 266.4
- Anisotropy (MN551 185.934 nM, Cycle 14 (65 min), n=1): 268.3 and 267.6 and 265.6
- Anisotropy (MN551 185.934 nM, Cycle 15 (70 min), n=1): 268.2 and 266 and 265.1
- Anisotropy [13]: 267 and 265.7 and 262.1
- Normalised anisotropy (0 nM MN551 = 1, free probe = 0) [13]: 0.9197 and 0.9304 and 0.891
- Anisotropy [14]: 264.3 and 265.8 and 263
- Anisotropy based on Raw Data (485) [14]: 269 and 266.3 and 264
- Normalised anisotropy (0 nM MN551 = 1, free probe = 0) [14]: 0.9183 and 0.9237 and 0.9268
- Anisotropy [15]: 266.2 and 263.8 and 260.7
- Normalised anisotropy (0 nM MN551 = 1, free probe = 0) [15]: 0.9468 and 0.9195 and 0.9303
- Fb, fraction bound (MN551 185.934 nM; Cycle 4 (15 min)): 0.9745 and 0.9717 and 0.9847
- Fb, fraction bound (MN551 185.934 nM; Cycle 5 (20 min)): 0.9684 and 0.9475 and 0.9883
- Fb, fraction bound (MN551 185.934 nM; Cycle 6 (25 min)): 0.9397 and 0.9626 and 0.9677
- Anisotropy data 485,520,520 [16]: 271.6 and 259.3 and 263.7
- Fb [16]: 0.998 and 1.002 and 1.058
- Fb, fraction bound [16]: 0.9338 and 0.9401 and 0.9533
- Anisotropy [17]: 273.9 and 274.1 and 271.1
- Anisotropy data 485,520,520 [17]: 267.5 and 260.6 and 263.3
- Fb [17]: 0.9943 and 1 and 1.048 and 0.9739 and 0.951 and 0.9562
- Anisotropy [18]: 271.4 and 270.3 and 271
- Anisotropy data 485,520,520 [18]: 267.9 and 259.7 and 261.7
- Fb [18]: 0.9807 and 1.029 and 1.006 and 0.9574 and 0.9103 and 0.9506
- Anisotropy [19]: 271.8 and 272.5 and 270.9
- Anisotropy data 485,520,520 [19]: 267 and 258.5 and 259.4
- Fb [19]: 0.9961 and 1.001 and 1.027 and 0.9557 and 0.9425 and 0.9511
- Anisotropy [20]: 271.5 and 268.3 and 268.1
- Fb [20]: 0.9609 and 0.9187 and 0.9448
- Anisotropy (MN551 185.934 nM; Cycle 11 (50 min); n=1): 267 and 260.7 and 257.4
- Anisotropy [21]: 264.6 and 257.3 and 257.1
- Anisotropy based on Raw Data (485) [21]: 272.2 and 272 and 265.5
- Anisotropy [22]: 263.3 and 254.6 and 258.3
- Anisotropy based on Raw Data (485) [22]: 275 and 271.6 and 267
- Anisotropy [23]: 264.5 and 255.7 and 256.1
- Anisotropy based on Raw Data (485) [23]: 272.1 and 268.8 and 264
- Anisotropy [24]: 261.8 and 255.7 and 253.9
- Anisotropy based on Raw Data (485) [24]: 270.4 and 267.6 and 263.4
- Anisotropy [25]: 261 and 254.7 and 255.1
- Anisotropy based on Raw Data (485) [25]: 269.3 and 266.9 and 263
- Anisotropy data 485,520,520 (MN551 185.934 nM; Cycle 19 (90 min); n=1): 263.2 and 263.4 and 263.7
- Anisotropy data 485,520,520 (MN551 185.934 nM; Cycle 20 (95 min); n=1): 262.6 and 262.4 and 259.2
- Fb (MN551 195.312 nM, Cycle 7 (30 min)): 0.8753 and 0.9172 and 0.903
- Anisotropy based on Raw Data (485) [26]: 278.8 and 276 and 274.1
- Fb [26]: 0.861 and 0.9289 and 0.9206
- Anisotropy based on Raw Data (485) [27]: 280 and 275.7 and 270.3
- Fb [27]: 0.8638 and 0.943 and 0.8976
- Anisotropy based on Raw Data (485) [28]: 276 and 273.8 and 270.5
- Fb [28]: 0.83 and 0.9149 and 0.9175
- Anisotropy (MN551 195.312 nM, Cycle 13 (60 min), n=1): 271.3 and 273.4 and 270.8
- Anisotropy (MN551 195.312 nM, Cycle 14 (65 min), n=1): 271.6 and 273.5 and 270.5
- Anisotropy (MN551 195.312 nM, Cycle 15 (70 min), n=1): 268.7 and 272.5
- Anisotropy (MN551 195.312 nM, Cycle 16 (75 min), n=1): 269 and 270.6 and 268
- Anisotropy (MN551 195.312 nM, Cycle 17 (80 min), n=1): 266.5 and 267.6 and 268.6
